Taken from: PubChem BioAssay AID1259308 (NCATS, 2017)
In all, the deposit lists about 59,000 reagents; this is a part drawn at random. About 1,510 of them (2.6%) were called active. 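Calls use total luciferase alone and ignore viability, so some active siRNAs may act by altering cell number.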 Entries without a mark were called inactive. The numbers tell different reagents against one gene apart. Further read-outs or replicates are left out here.

- Test: 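Genes whose loss raises luciferase production in HEK293 cells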 (primary screen)
- Cells: human HEK293 embryonic kidney cells stably expressing firefly luciferase (HEK-CMV-Luc2-Hygro)
- Knock-down reagent: single siRNA against human genes, 0.8 pmol siRNA per well
- Duration: 72 h
- Measured: 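Reporter luminescence and viable-cell signal on separate replicate plates, given as percent of non-targeting control and median/MAD z-scores, plus per-cell luciferase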
- Reading the numbers: total luciferase, z-score: higher = more reporter protein produced
- Rule for the call: 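Active when the median/MAD z-score for overall luciferase is greater than 3; a gene was taken forward for validation with new siRNAs if at least two of its three siRNAs passed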
- Calls: active = raised luciferase; inactive = no rise

{"gene": "SLC2A13", "reagent no.": 1, "total luciferase, z-score": -1.47}
{"gene": "SLC2A13", "reagent no.": 2, "total luciferase, z-score": -0.796}
{"gene": "SLC2A13", "reagent no.": 3, "total luciferase, z-score": -0.676}
{"gene": "GNG13", "reagent no.": 1, "total luciferase, z-score": 0.334}
{"gene": "GNG13", "reagent no.": 2, "total luciferase, z-score": 0.221}
{"gene": "GNG13", "reagent no.": 3, "total luciferase, z-score": -0.584}
{"gene": "PABPC5", "reagent no.": 1, "total luciferase, z-score": -0.54}
{"gene": "PABPC5", "reagent no.": 2, "total luciferase, z-score": -0.813}
{"gene": "PABPC5", "reagent no.": 3, "total luciferase, z-score": -0.377}
{"gene": "TBPL2", "reagent no.": 1, "total luciferase, z-score": 0.752}
{"gene": "TBPL2", "reagent no.": 2, "total luciferase, z-score": 0.162}
{"gene": "TBPL2", "reagent no.": 3, "total luciferase, z-score": 0.304}

An excerpt taken from the entries so far, as a working copy:
{"gene": "PABPC5", "reagent no.": 3, "total luciferase, z-score": -0.377}
{"gene": "TBPL2", "reagent no.": 1, "total luciferase, z-score": 0.752}
